# Results from PMC7819943, “Rice protein-binding microarrays: a tool to detect cis-acting elements near promoter regions in rice”.
# Chains of the proteins cited; added tags and fusions are not shown.
# UniProt Q0JBA9, entry or part of it: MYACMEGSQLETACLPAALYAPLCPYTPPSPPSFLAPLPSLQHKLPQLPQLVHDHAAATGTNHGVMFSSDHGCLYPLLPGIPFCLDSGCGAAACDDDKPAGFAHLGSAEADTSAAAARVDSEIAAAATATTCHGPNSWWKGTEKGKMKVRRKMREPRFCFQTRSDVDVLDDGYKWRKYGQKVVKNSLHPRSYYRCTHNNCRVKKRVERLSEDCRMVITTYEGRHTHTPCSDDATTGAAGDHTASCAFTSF
# The list shows a part of the results.
# Target: OsWRKY34 (Oryza sativa, UniProt Q0JBA9 1-250)
# Assay: protein-binding microarray (RPBM); PBS, 2% BSA, 51.3 ng/ul salmon testes DNA, 50 uM zinc acetate, 200 nM TF, 25 C, 1 h; high values mean tight binding
# Settings: protein: recombinant; tags: N-terminal polyhistidine and DsRed monomer fusion (pET32a); label: CyDye5-dUTP incorporated in the synthesized complementary strand; 3' TTTTT single-stranded linker to array surface; dsDNA, one strand shown
# How it was run: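 Binding signal is reported as fluorescence intensity per feature (arbitrary units) from an Axon 4000B scanner. Incubation used 200 nM of each Ni–NTA-purified, N-terminally polyhistidine- and DsRed-fused transcription factor from E. coli BL21-CodonPlus on a double-stranded custom Agilent array for 1 h at 25 °C, with 50 µM zinc acetate in the buffer, followed by washing.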
row,Sequence,binding signal
1,ACTACCCCTGTGTTTCATATTATAAGTCAGTTTTGAATTTCGGAGTCACCTAGTGCAG,10000 fluorescence intensity (a.u.)
2,ATTAATCTATGTTGCCAATTTTTTTCATATTTTTATGACTCGGAGTCACCTAGTGCAG,10500 fluorescence intensity (a.u.)
3,CATGGCAGTCACTTTCCCAGTTCCGGTTTTTGAATTGCTGCGGAGTCACCTAGTGCAG,10500 fluorescence intensity (a.u.)
4,AGGCAGTGGCTGTTTGCTCTTTGATCTGCATGTCCTTTGGCGGAGTCACCTAGTGCAG,8800 fluorescence intensity (a.u.)
5,TCTCTCTCTCTCACACGCACACACCACTCTCTCGCCCACTCGGAGTCACCTAGTGCAG,9500 fluorescence intensity (a.u.)
6,CTAGGAAGCGCCCCATCCCACCCACCGCCTAACCGCCTTCCGGAGTCACCTAGTGCAG,11700 fluorescence intensity (a.u.)
7,AGATAAAGGTGAGGGTACTCGTGTGGGGCTTTTAACTTTTCGGAGTCACCTAGTGCAG,11700 fluorescence intensity (a.u.)
8,TTCTTTTCTTTCTCTATATTTTTTTCATCAGTTACTTCTACGGAGTCACCTAGTGCAG,8920 fluorescence intensity (a.u.)
9,TCCCATGAGTGCTTTGTTCATGACTTTCAGGTCTTCTCTCCGGAGTCACCTAGTGCAG,9670 fluorescence intensity (a.u.)
10,TGCTGGCCGTGTTGCCACCAAGCTCGCCGAGGACCGTTGACGGAGTCACCTAGTGCAG,8440 fluorescence intensity (a.u.)
11,GGGAAACCGTTGCTCGTTGGCGCCAATTTTTCCCGCCATTCGGAGTCACCTAGTGCAG,9210 fluorescence intensity (a.u.)
12,AAAGTTTCTGTTGCACTATCCAAAACACACGTCAGTTTATCGGAGTCACCTAGTGCAG,9530 fluorescence intensity (a.u.)
13,TTGTTGCAATAACTGTCCAGGATGCTATTGTTCCACTTGTCGGAGTCACCTAGTGCAG,8530 fluorescence intensity (a.u.)
14,TTATCACTCCTCTTTTTTAATTGGCTATTGTTAATTATATCGGAGTCACCTAGTGCAG,8920 fluorescence intensity (a.u.)
15,TACATTTTTTTATTTTCTAGTTACATGGGGTAGCATATAGCGGAGTCACCTAGTGCAG,8700 fluorescence intensity (a.u.)
16,CTACTCCGCTCCGCCGTCGCTGTTGCTCTCTGATCCCTAGCGGAGTCACCTAGTGCAG,11800 fluorescence intensity (a.u.)
17,GAGCATTTGGTATTTGTTCTTCATCTCTGCTTCCGCCATGCGGAGTCACCTAGTGCAG,8220 fluorescence intensity (a.u.)
18,ACCATGCACCAGTTCTGCATAGTTCCCATGTTGCAGTTCTCGGAGTCACCTAGTGCAG,8490 fluorescence intensity (a.u.)
19,TTAATCACACACGCCTGCTTAATTAATCATCTCCTATCACCGGAGTCACCTAGTGCAG,9010 fluorescence intensity (a.u.)
20,GCCGCTACTCGCCTTCGCTTCCGCCTTCGTTGCTGGTTGCCGGAGTCACCTAGTGCAG,9450 fluorescence intensity (a.u.)
21,CTACAGCTACCATCCTCTCTGTTCTTTTTTTTAATGTTCCCGGAGTCACCTAGTGCAG,12900 fluorescence intensity (a.u.)

# Single entries from the results shown.
# Under binding signal, ATTAATCTATGTTGCCAATTTTTTTCATATTTTTATGACTCGGAGTCACCTAGTGCAG reads 10500 fluorescence intensity (a.u.)
# Under binding signal, CTAGGAAGCGCCCCATCCCACCCACCGCCTAACCGCCTTCCGGAGTCACCTAGTGCAG reads 11700 fluorescence intensity (a.u.)
# Under binding signal, TTATCACTCCTCTTTTTTAATTGGCTATTGTTAATTATATCGGAGTCACCTAGTGCAG reads 8920 fluorescence intensity (a.u.)

# Going on with the list:

row,Sequence,binding signal
1,AACTTTACAATTTTTTTATGTCATCCATGTCACATGTTTTCGGAGTCACCTAGTGCAG,9030 fluorescence intensity (a.u.)
2,CACTCAACACTTAATGTTACGATAATCTGTTACTTGTATGCGGAGTCACCTAGTGCAG,8690 fluorescence intensity (a.u.)
3,GCCCTACTGCCCTTGACACGTCGTCCATCCCATCGAACCGCGGAGTCACCTAGTGCAG,10600 fluorescence intensity (a.u.)
4,CGGCGCCCACCACCACCACCACCACGACCCCGACCTCCGTCGGAGTCACCTAGTGCAG,10800 fluorescence intensity (a.u.)
5,CCGCATTTTAATGTATGACGTCATTGACTTTTCGATCAACCGGAGTCACCTAGTGCAG,10200 fluorescence intensity (a.u.)
6,AACGGTTGGGCTCATGAAATGACACTATTGGTGGTTGTGACGGAGTCACCTAGTGCAG,8680 fluorescence intensity (a.u.)
7,AGTATTGTTTTACCGGTGGGGTCTGAATTTCCGAAATTTTCGGAGTCACCTAGTGCAG,9020 fluorescence intensity (a.u.)
8,CGTCGTCGTTCTCCCTCCCTCCTCGAGAGTGGCAACAAAACGGAGTCACCTAGTGCAG,9110 fluorescence intensity (a.u.)
9,TCACTTCTTGGCCACCGTGCTGCCCGCCGTGGTGACCGACCGGAGTCACCTAGTGCAG,9480 fluorescence intensity (a.u.)
10,CGTCTTCGTCCTTGGCTTCTCCACCGAGCTCACCACAAACCGGAGTCACCTAGTGCAG,9080 fluorescence intensity (a.u.)
11,AATCGCCGCCCGCCACGTGTCGCCTTCCCTTGCACGCCATCGGAGTCACCTAGTGCAG,8950 fluorescence intensity (a.u.)
12,AGCTATGGCAGCTGCTTCTTCCTCGCGCGAACAAATCAATCGGAGTCACCTAGTGCAG,8610 fluorescence intensity (a.u.)
13,AAAACCACCTGTAACATAACAGAGTTACTATTGCTTTTTCCGGAGTCACCTAGTGCAG,8590 fluorescence intensity (a.u.)
14,AGGGATTTTAAGTTTTTGCTTGTATTGTTTGATCACTCATCGGAGTCACCTAGTGCAG,8270 fluorescence intensity (a.u.)
15,CCAGGAATTTCCATCCACCGGTTTCTTTTTCTCCCCTGAACGGAGTCACCTAGTGCAG,9400 fluorescence intensity (a.u.)
16,TGTTCATTTTGAATATCTGTACATACTGCTGGGTTATGACCGGAGTCACCTAGTGCAG,8310 fluorescence intensity (a.u.)
17,TGCTGTGGTGTGGTGTGGTGTGAATTTTGTTGATTGGTCGCGGAGTCACCTAGTGCAG,8750 fluorescence intensity (a.u.)
18,TTGCATACACATGGTCATCTCCCATTTCACCTGCAAGCAACGGAGTCACCTAGTGCAG,9870 fluorescence intensity (a.u.)
19,TCTAAACATCGGCGGCACATGGCTTCCGCCACACTTGACCCGGAGTCACCTAGTGCAG,8820 fluorescence intensity (a.u.)
20,ACCATCTCTCTCTCTCTCTCTGCATGCATATCTTCTCCTCCGGAGTCACCTAGTGCAG,14300 fluorescence intensity (a.u.)
21,GATGCATGCCTTCTTGTCTGTCATACGTCTCGTGCAATCGCGGAGTCACCTAGTGCAG,9090 fluorescence intensity (a.u.)

row,Sequence,binding signal
1,AGTCTAGGTTCTTCCGTTCTTGTGTTCATCGTAGAATTTTCGGAGTCACCTAGTGCAG,10400 fluorescence intensity (a.u.)
2,GCCGCCACCGCCACCGCCGCCGCCGCCGCATCCTCCTCCTCGGAGTCACCTAGTGCAG,9140 fluorescence intensity (a.u.)
3,TCTTCAGCTCCACAGTGTTTATCGATGTTTGCAATATTTCCGGAGTCACCTAGTGCAG,10100 fluorescence intensity (a.u.)
4,CGTAATTAAGGCTCTTATCCCCTCAGCATTCATCTTTGACCGGAGTCACCTAGTGCAG,9050 fluorescence intensity (a.u.)
5,TCGAATTTATATGTACTATTTTTTGGGATTTCTCGGGTATCGGAGTCACCTAGTGCAG,8960 fluorescence intensity (a.u.)
6,CTTGTTTTTCTACCTCCTGCCCTAAATGCCAAGTGTTAACCGGAGTCACCTAGTGCAG,9050 fluorescence intensity (a.u.)
7,AAACACCACTTTTCCATACTTAAATTTAATGCTACTTATCCGGAGTCACCTAGTGCAG,8530 fluorescence intensity (a.u.)
8,AGTACCTTGCAATGCCTATAATGTCTGTATCTGTTATTGTCGGAGTCACCTAGTGCAG,9050 fluorescence intensity (a.u.)
9,CCTTTCGTTTTGTACAGTTTGCTCATCTATTCAATGAAATCGGAGTCACCTAGTGCAG,8190 fluorescence intensity (a.u.)
10,ATTGTCCATTCCACTATTCCAGTATTCCACCACGCGCTGCCGGAGTCACCTAGTGCAG,10700 fluorescence intensity (a.u.)
11,TCCGTAGACCCGAGACACCCGACCCGACCTCGCCGCATCCCGGAGTCACCTAGTGCAG,9910 fluorescence intensity (a.u.)
12,TTTGTTCTTGGCAGACTATTGGCCTATCAGCTATCCAACTCGGAGTCACCTAGTGCAG,8740 fluorescence intensity (a.u.)
13,GGGTGTCATATAGGTCCAAGCGGGCTCCAAGTCGCTCCGTCGGAGTCACCTAGTGCAG,8460 fluorescence intensity (a.u.)
14,TTTTTTTTCATTTTTTTCTCTTAATTAATTACTCCATCCGCGGAGTCACCTAGTGCAG,9070 fluorescence intensity (a.u.)
15,CTAGTAATTTACTTATTAGTACCTGTGTAGTATTATCTATCGGAGTCACCTAGTGCAG,8580 fluorescence intensity (a.u.)
16,CCCACATGTCATGTCTCTTCCTACCCGGTCGCTCGCTCGCCGGAGTCACCTAGTGCAG,10500 fluorescence intensity (a.u.)
17,TTCTCCTGTTGCCCTATGGTCCCACTCTGCTAGTCTGCTTCGGAGTCACCTAGTGCAG,12400 fluorescence intensity (a.u.)
18,GTACAAGCAATTCCACTGCACCTCTTGTGTTAGTAAAACCCGGAGTCACCTAGTGCAG,10200 fluorescence intensity (a.u.)
19,AAATTTTTCATCCTATCACATCGAACATTTGAACATCTACCGGAGTCACCTAGTGCAG,11400 fluorescence intensity (a.u.)
20,AACCCTTCAACGCGAACTGGATAGAGTCGAACACCTTCGTCGGAGTCACCTAGTGCAG,8160 fluorescence intensity (a.u.)
21,TTTATCTCGTAGTTATTTTGTTATTACACTACGTTTAATACGGAGTCACCTAGTGCAG,8720 fluorescence intensity (a.u.)

row,Sequence,binding signal
1,TTATTTTTTTCCTTATTTTGTATGGCAATCGTTTTTTCCTCGGAGTCACCTAGTGCAG,9260 fluorescence intensity (a.u.)
2,GCAGGCTCTGAACTTGGTACGGTTGATGATTATTTTTATTCGGAGTCACCTAGTGCAG,10500 fluorescence intensity (a.u.)
3,AACAGGCATGGTTTCCTTCGTCGTTTCTACTAGCAGTTGCCGGAGTCACCTAGTGCAG,11900 fluorescence intensity (a.u.)
4,TGATGCATAGTGGGGAGAAGGGATGTGATGATGATGAACCCGGAGTCACCTAGTGCAG,8420 fluorescence intensity (a.u.)
5,TTCGTCTCCGATCGATGCCTCGCCTGACTCGCATGAGGGGCGGAGTCACCTAGTGCAG,8320 fluorescence intensity (a.u.)
6,TGGATTGGCTCGAGAATGTTTTTTATTTCCTTTGACAGGACGGAGTCACCTAGTGCAG,8600 fluorescence intensity (a.u.)
7,CCCGCCGCCGCCGCCACCACCGCAGCTGCGCCGCTTCAAGCGGAGTCACCTAGTGCAG,9360 fluorescence intensity (a.u.)
8,ATCCTAAGTTTTCTCCTCGTTAGGGTTGGTTGAGTGAATCCGGAGTCACCTAGTGCAG,8790 fluorescence intensity (a.u.)
9,CTTGTGACCTACGCCCTCTACGCTCTCATCCCTCTCGCCCCGGAGTCACCTAGTGCAG,9780 fluorescence intensity (a.u.)
10,GCCGCGCGCCACTTCGCCACCGCGCCGCGCGGCGCTCATCCGGAGTCACCTAGTGCAG,11400 fluorescence intensity (a.u.)
11,GTTAATTTGAGTGTGCTTGATTTCCTTCGGCCATTGTTCTCGGAGTCACCTAGTGCAG,9060 fluorescence intensity (a.u.)
12,TGGTTTTCTCTTTTCTAGTGTATAGTTGTATATAAATTAACGGAGTCACCTAGTGCAG,8250 fluorescence intensity (a.u.)
13,CGGCCGCCGGACCTCCTCTCCCACCTCGCACCGTCGATCTCGGAGTCACCTAGTGCAG,10100 fluorescence intensity (a.u.)
14,TTGTTGACCGAGCACGGTCCCATACATGTTACATCTCATCCGGAGTCACCTAGTGCAG,10700 fluorescence intensity (a.u.)
15,GACTACTGAATTTTTCTTGCTCTTTTGTTGTTCTAAAGTCCGGAGTCACCTAGTGCAG,11000 fluorescence intensity (a.u.)
16,TGCATCTCTGATTTGTAGTGAATGGGTCAAATGCTTTTGACGGAGTCACCTAGTGCAG,8310 fluorescence intensity (a.u.)
17,GTCGTACTCGCGTCGTTCTCTTCTCCTTCCCTTCCCAGCACGGAGTCACCTAGTGCAG,9630 fluorescence intensity (a.u.)
18,CATATTGTAGTTCTTCATCCGACTTACTTCGATTCATTGACGGAGTCACCTAGTGCAG,8550 fluorescence intensity (a.u.)
19,GCTACTATCCGTTCTATCGTTTAGTTTTTCTTTGAGAACCCGGAGTCACCTAGTGCAG,9860 fluorescence intensity (a.u.)
20,ATTATATGGTTGTGGGTCCCATTTTAGAGTTGGGAGGGCTCGGAGTCACCTAGTGCAG,8100 fluorescence intensity (a.u.)
21,GTGATACATGCTGACGTCTTATTTGATATGCCATAAATATCGGAGTCACCTAGTGCAG,11300 fluorescence intensity (a.u.)

# Quoted at random: three entries already listed, in no set order.
row,Sequence,binding signal
14,TTGTTGACCGAGCACGGTCCCATACATGTTACATCTCATCCGGAGTCACCTAGTGCAG,10700 fluorescence intensity (a.u.)
3,AACAGGCATGGTTTCCTTCGTCGTTTCTACTAGCAGTTGCCGGAGTCACCTAGTGCAG,11900 fluorescence intensity (a.u.)
10,GCCGCGCGCCACTTCGCCACCGCGCCGCGCGGCGCTCATCCGGAGTCACCTAGTGCAG,11400 fluorescence intensity (a.u.)
